Test results taken from patent publication US20260199447A1 (US Dept. of Health and Human Services, published 2026).
These are yes or no findings as the source states them, for the method shown. Binding calls can cover weak binding; strength is not graded here.

Columns and labels:
Assay in all cases: flow cytometry on live infected cells
[1] = molecular target: CHIKV (live cells infected with CHIKV) (chikungunya virus (CHIKV))
[2] = molecular target: ONNV (live cells infected with ONNV) (o'nyong'nyong virus (ONNV))
[3] = molecular target: RRV (live cells infected with RRV) (Ross River virus (RRV))

Measured: binding

B1: SKT05 (antibody, V domains shown)
VH: EVQLVESGAGLVQPGGSLRLSCAASGFTFSDSWMSWVRQSPGKGLEWVGRIKGKPDGETAAYAASVKGRFSISRDDSKNTLYLQMNSLKTEDTAVYYCTRDDRTSCRRGVCYAAFHSWGQGVLVTVSS
VL: DIQMTQSPSSLSASAGDRVTLTCRASQAISFYLAWYQQKPGKAPKRLIYDASELQGGVPSRFSGSGSGTDFTLSINSLQPEDSATYFCLQYDSPPFTFGPGTKVEIKR
binds: all assays above

B2: SKT20 (antibody, V domains shown)
VH: QVQVQESGPGLVKPSETLSLTCAVSSGSINDDSYYWTWIRQSPGKGLEWLGFIHGGTGKSFYNPSLESRVTISKDTSRNQFSLTLSSVSAADTAVYYCARSHFCSNTFCYGWFDVWGPGIRVTVSS
VL: DVVMTQTPLSLPITPGEPASISCRSSQSLLHSNGNTYLHWYLQKPGQSPQLLIYGGSNRASGVPDRFSGSGSGTDFTLKISKVEAEDVGVYYCVQAIAFPWTFGQGTKVEIKR
binds: all assays above
